Test results taken from patent publication US20240230656A1, “Predicting Prognosis and Treatment Response of Breast Cancer Patients Using Expression and Cellular Localization of N-Myristoyltransferase” (Oncodrex Inc., priority 2021, published 2024).
At least one structure is not confirmed: it was looked up by name or label, or the drawing left a doubt.

Experiments:
NMT1 = assay: MCF7 gene expression of NMT following insulin stimulation or rapamycin treatment (NMT1); format: cell-based; settings: MCF7 cells
Source text: (§1) Example 9—MCF7 Gene Expression of NMT and WT1 Regulated Genes Following Insulin Stimulation
(§2) NMT1 was also shown to bind to regions of DNA containing BASP1 regulated growth genes. […] This supports our prediction that phosphorylation is the leading PI3K/AKT/mTOR mediated regulatory mechanism responsible for NMT1 modulation.

NMT2 = assay: MCF7 gene expression of NMT following insulin stimulation or rapamycin treatment (NMT2); format: cell-based; settings: MCF7 cells
Source text: as §1, §2

`CO[C@H]1C[C@@H]2CC[C@@H](C)[C@@](O)(O2)C(=O)C(=O)N2CCCC[C@H]2C(=O)O[C@H]([C@H](C)C[C@@H]2CC[C@@H](O)[C@H](OC)C2)CC(=O)[C@H](C)/C=C(\C)[C@@H](O)[C@@H](OC)C(=O)[C@H](C)C[C@H](C)/C=C/C=C/C=C/1C` [rapamycin] was tested. Which “NMT1 expression following treatment” value (NMT1) did it give?
The value was “little change”.

And the “NMT2 expression following treatment” value (NMT2)?
The value was “little change”.
